Experimental data taken from PMC4605657.
These are yes or no findings as the source states them, for the method shown.

By UniProt entry, the sequences of proteins in these tests, tags left out.
UniProt J4W563: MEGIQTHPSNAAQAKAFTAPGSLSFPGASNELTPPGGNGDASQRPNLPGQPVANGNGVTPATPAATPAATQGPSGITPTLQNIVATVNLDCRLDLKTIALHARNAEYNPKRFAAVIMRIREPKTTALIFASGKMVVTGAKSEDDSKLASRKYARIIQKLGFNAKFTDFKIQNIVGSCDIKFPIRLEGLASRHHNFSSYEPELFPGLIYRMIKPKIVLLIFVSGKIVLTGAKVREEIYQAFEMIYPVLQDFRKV

Target: Beauveria bassiana TATA-binding protein (BbTBP) (Beauveria bassiana) (UniProt J4W563)
Assay: condition: only in the absence of DNA template (TBP = 1129 nM, MBF1 = 855 nM); native gel or EMSA; 6% non-denaturing PAGE, the two proteins combined in the absence of DNA template; TBP 1129 nM, MBF1 855 nM; 30 min at 37°C; same binding buffer; protein stain; both purified

## Beauveria bassiana multiprotein bridging factor 1 (BbMBF1) (from UniProt J4WFU2 1-153)
  binding: no binding
